PubChem BioAssay AID1508597 – Cure First, 2020

Test: 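Knock-downs altering ovarian cancer cell survival with or without PARP inhibitor rucaparib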 (primary screen)
Cell system: human ovarian carcinoma lines grown from tumours: OCI-P5x (papillary serous) and OCI-C5x (clear cell)
Knock-down reagent: siRNA pool against human genes, 1.25 pmol siRNA per well
Time to read-out: 72 h or 96 h, depending on the cell culture
Conditions: rucaparib 20 µM (about IC30) or vehicle, present until read-out
Rucaparib or vehicle: Vehicle
Cell line: OCI-P5x (serous)
Read-out: 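ATP luminescence measured at 72 or 96 h according to the culture, then normalised and expressed as percent viability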
Scale: viability, normalised: higher = more viable cells remaining
Rule for the call: 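a well counts as a hit if its normalised viability is under 80 percent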
Meaning of the calls: active = viability under 80%; inactive = viability 80% or more
This is an unselected part of the about 2,100 reagents, in one setting of the screen. 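Calls flag viability under 80% in either arm, not effects specific to rucaparib; the reference for percent is not stated.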 Unmarked entries are inactive. A reagent listed more than once was tested more than once; the source does not tell the runs apart. Reagent sequences are not shown. Not given: the 100% reference.

With MIER3 (MIER family member 3) [SID405527013], technical replicate 1, how do the results read?
viability, normalised (%): 66.6 (active)

Which result is listed for MIER3 (MIER family member 3) [SID405527013], technical replicate 2?
viability, normalised (%): 70.8 (active)

How did the screen score MIER3 (MIER family member 3) [SID405527013], technical replicate 3?
viability, normalised (%): 71.3 (active)

Which result is listed for SRSF1 (serine and arginine rich splicing factor 1) [SID405528280], technical replicate 1?
viability, normalised (%): 75.6 (active)

What is on record for SRSF1 (serine and arginine rich splicing factor 1) [SID405528280], technical replicate 2?
viability, normalised (%): 72.7 (active)

With SRSF1 (serine and arginine rich splicing factor 1) [SID405528280], technical replicate 3, what was measured?
viability, normalised (%): 76.8 (active)

Which result is listed for PWWP3B (PWWP domain containing 3B) [SID405527041], technical replicate 1?
viability, normalised (%): 63.5 (active)

What did the screen give for PWWP3B (PWWP domain containing 3B) [SID405527041], technical replicate 2?
viability, normalised (%): 61.4 (active)

For PWWP3B (PWWP domain containing 3B) [SID405527041], technical replicate 3, how do the results read?
viability, normalised (%): 71.9 (active)

For LBR (lamin B receptor) [SID405526952], technical replicate 1, what was measured?
viability, normalised (%): 61.1 (active)

How did the screen score LBR (lamin B receptor) [SID405526952], technical replicate 2?
viability, normalised (%): 72.9 (active)

For LBR (lamin B receptor) [SID405526952], technical replicate 3, what was measured?
viability, normalised (%): 65.1 (active)

How did the screen score BTK (Bruton tyrosine kinase) [SID405526384], technical replicate 1?
viability, normalised (%): 81.8

For BTK (Bruton tyrosine kinase) [SID405526384], technical replicate 1, what does the deposit list?
viability, normalised (%): 71.6 (active)

For BTK (Bruton tyrosine kinase) [SID405526384], technical replicate 2, what was measured?
viability, normalised (%): 80.8

How did the screen score BTK (Bruton tyrosine kinase) [SID405526384], technical replicate 2?
viability, normalised (%): 65.8 (active)

For BTK (Bruton tyrosine kinase) [SID405526384], technical replicate 3, how do the results read?
viability, normalised (%): 67.1 (active)

What is on record for BTK (Bruton tyrosine kinase) [SID405526384], technical replicate 3?
viability, normalised (%): 78.1 (active)

For MUTYH (mutY DNA glycosylase) [SID405528440], technical replicate 1, how do the results read?
viability, normalised (%): 50.1 (active)

Which result is listed for MUTYH (mutY DNA glycosylase) [SID405528440], technical replicate 2?
viability, normalised (%): 69.8 (active)

How did the screen score MUTYH (mutY DNA glycosylase) [SID405528440], technical replicate 3?
viability, normalised (%): 65 (active)

Which result is listed for DDX19A (DEAD-box helicase 19A) [SID405528174], technical replicate 1?
viability, normalised (%): 89.4

For DDX19A (DEAD-box helicase 19A) [SID405528174], technical replicate 2, how do the results read?
viability, normalised (%): 98.4

With DDX19A (DEAD-box helicase 19A) [SID405528174], technical replicate 3, what was measured?
viability, normalised (%): 87.2

With PRKAA1 (protein kinase AMP-activated catalytic subunit alpha 1) [SID405527676], technical replicate 1, what was measured?
viability, normalised (%): 98.1

With PRKAA1 (protein kinase AMP-activated catalytic subunit alpha 1) [SID405527676], technical replicate 2, what was measured?
viability, normalised (%): 93.9

With PRKAA1 (protein kinase AMP-activated catalytic subunit alpha 1) [SID405527676], technical replicate 3, what does the deposit list?
viability, normalised (%): 69.4 (active)

How did the screen score H4C5 (H4 clustered histone 5) [SID405526866], technical replicate 1?
viability, normalised (%): 76.2 (active)

Which result is listed for H4C5 (H4 clustered histone 5) [SID405526866], technical replicate 2?
viability, normalised (%): 66.6 (active)

What did the screen give for H4C5 (H4 clustered histone 5) [SID405526866], technical replicate 3?
viability, normalised (%): 70.5 (active)

How did the screen score RB1 (RB transcriptional corepressor 1) [SID405527230], technical replicate 1?
viability, normalised (%): 36.5 (active)

What did the screen give for RB1 (RB transcriptional corepressor 1) [SID405527230], technical replicate 2?
viability, normalised (%): 54.4 (active)

How did the screen score RB1 (RB transcriptional corepressor 1) [SID405527230], technical replicate 3?
viability, normalised (%): 57.3 (active)

For ZAR1 (zygote arrest 1) [SID405526639], technical replicate 1, what does the deposit list?
viability, normalised (%): 75.8 (active)

With ZAR1 (zygote arrest 1) [SID405526639], technical replicate 2, how do the results read?
viability, normalised (%): 65.6 (active)

For ZAR1 (zygote arrest 1) [SID405526639], technical replicate 3, what was measured?
viability, normalised (%): 81.7

For DDX6 (DEAD-box helicase 6) [SID405528204], technical replicate 1, what does the deposit list?
viability, normalised (%): 47.9 (active)

With DDX6 (DEAD-box helicase 6) [SID405528204], technical replicate 2, what does the deposit list?
viability, normalised (%): 48.9 (active)

Which result is listed for DDX6 (DEAD-box helicase 6) [SID405528204], technical replicate 3?
viability, normalised (%): 63.9 (active)

With PELP1 (proline, glutamate and leucine rich protein 1) [SID405528417], technical replicate 1, how do the results read?
viability, normalised (%): 68.7 (active)

What is on record for PELP1 (proline, glutamate and leucine rich protein 1) [SID405528417], technical replicate 2?
viability, normalised (%): 59.2 (active)

What is on record for PELP1 (proline, glutamate and leucine rich protein 1) [SID405528417], technical replicate 3?
viability, normalised (%): 72.2 (active)

Targets above whose target name starts with B or b (6):
BTK (Bruton tyrosine kinase) [SID405526384], technical replicate 1 → viability, normalised (%) = 81.8
BTK (Bruton tyrosine kinase) [SID405526384], technical replicate 1 → viability, normalised (%) = 71.6 (active)
BTK (Bruton tyrosine kinase) [SID405526384], technical replicate 2 → viability, normalised (%) = 80.8
BTK (Bruton tyrosine kinase) [SID405526384], technical replicate 2 → viability, normalised (%) = 65.8 (active)
BTK (Bruton tyrosine kinase) [SID405526384], technical replicate 3 → viability, normalised (%) = 67.1 (active)
BTK (Bruton tyrosine kinase) [SID405526384], technical replicate 3 → viability, normalised (%) = 78.1 (active)
